The assay in a line: qHTS Assay for Lipid Storage Modulators in Drosophila S3 Cells.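 As to cell number change: cells counted by Cell Tracker Red CMTPX staining in the red channel.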 Particulars: BODIPY lipid droplet fluorescence, 18-24 h; for cell number change: measured here: cell count max response, cells fed with added oleic acid. In a few lines: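 Drosophila S3 cells got compounds at several concentrations plus oleic acid (400 uM solution). Laser-scanning cytometry with 488 nm excitation read lipid droplets at 500-530 nm and cells at 575-640 nm. Percent activity was relative to 20 uM Triacsin C.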

[1] abbreviates: measured here: lipid fluorescence (Fed channel) AC50, cells fed with added oleic acid.
Setting [2] is: measured here: cell number channel AC50, cells fed with added oleic acid.

The other results are listed elsewhere or left out. Shown are side measurements of this screen, not its main read-out; they come without a call. The list favours compounds with an active or inconclusive main result. Potencies come from curve fits of mixed quality, noted in brackets.

As to `Cc1ccc(NC(=O)[C@@H]2CCCN2C(=O)c2cccs2)cc1S(=O)(=O)N1CCCCC1`, the cell number change worked out at 2.06%. Moreover, the AC50 under setting [1] was 14.6 µM [falling, single point].

As to `COc1cc(/C=C/C(=O)O)cc(S(=O)(=O)NCC2CCCO2)c1OC` (configuration not stated), the cell number change was 4.48%. Further, under setting [2], the AC50 is 0.58 µM [falling, single point].

As for `CNC(=O)/C(C#N)=C/c1cccc(Oc2ccccc2)c1`, the cell number change was -4.7%.

In the case of `O=C(N/N=C/c1ccco1)c1cc2ccccc2o1`, the cell number change is -27.8%. The AC50 under setting [1] is 29.1 µM [falling, single point].

With `CC(C(=O)NN)c1ccc([N+](=O)[O-])cc1` (configuration not stated), the cell number change was -10.8%. The AC50 under setting [2] is 1.16 µM [falling, full curve]. The AC50 under setting [1] is 1.03 µM [falling, full curve].

Consider `COc1ccccc1NC(=O)Nc1ccnn1Cc1cccs1`, for which the cell number change was -25.1%.

For `COc1ccc(C(=O)NC(=S)N2CCOCC2)cc1Br`, the cell number change turned out to be 44.2%. In addition, the AC50 under setting [2] was 29.1 µM [rising, single point]. In addition, under setting [1], the half-maximal activity concentration (AC50) is 29.1 µM [rising, single point].

For the molecule `COc1ccc(CNc2ccc3c(c2)nc(C)n3C)cc1`, the cell number change is -31.3%. The half-maximal activity concentration (AC50) under setting [2] is 29.1 µM [falling, single point].

Consider `O=CNCCCc1nc2ccccc2n1CCc1ccccc1`, for which the cell number change was 12.8%. Besides, the AC50 under setting [2] is 6.51 µM [rising, partial curve, poor fit]. Further, under setting [1], the half-maximal activity concentration (AC50) is 2.91 µM [rising, single point].

As for `O=C(OC[C@@H]1CCCN2CCCC[C@H]12)c1cc2ccccc2oc1=O`, the cell number change is 28%. Besides, under setting [1], the concentration at half-maximal activity (AC50) was 14.6 µM [rising, partial curve, poor fit].

For the molecule `COC(=O)C1=C(N)Oc2cc(N(C)C)ccc2C1c1ccccc1OC` (configuration not stated), the cell number change was -10%. For the same molecule, under setting [1], the half-maximal activity concentration (AC50) is 0.082 µM [rising, single point].

For `CCN(Cc1ccncc1)C(=O)c1cc(COc2c(F)cccc2F)on1`, the half-maximal activity concentration (AC50) under setting [2] was 5.17 µM [rising, single point].

As to `Cc1cc(NC(=O)COC(=O)c2cc(S(=O)(=O)N(C)C)ccc2Cl)no1`, the cell number change amounted to 2.72%. The AC50 under setting [1] is 1.84 µM [rising, partial curve, poor fit].

As for `CCn1c(COc2cccc(OC)c2)nnc1SCC(=O)N1CCOCC1`, the cell number change is -14.2%. Further, the half-maximal activity concentration (AC50) under setting [1] was 0.146 µM [falling, full curve, poor fit].

Take `Cc1cc(Cl)ccc1NC(=O)CN1C(=O)C(=O)N(C2CCCC2)C1=O`: the cell number change came to 17.5%.

`Cc1cc(C(=O)NCC(c2ccco2)N2CCCC2)c2ccccc2n1` (configuration not stated): the cell number change is -8.64%. Besides, the AC50 under setting [1] is 4.61 µM [falling, single point].

Consider `CCc1ccccc1N(CC(=O)NC1CCCCC1)C(=O)CCCC(=O)Nc1ccccn1`, for which the cell number change was -8.97%. The AC50 under setting [2] was 0.00517 µM [falling, full curve, poor fit].

On to `Cn1c(C(=O)NCCN2CCOCC2)cc2sccc21`, for which the AC50 under setting [1] was 9.2 µM [rising, partial curve].

On to `N#Cc1ccsc1NC(=O)CN1CCN(c2ccc(O)cc2)CC1`, for which the cell number change was found to be 13.3%. Further, the AC50 under setting [1] is 0.00461 µM [rising, full curve, poor fit].

For `O=c1c2ccccc2ncn1CCCSc1ccccc1`, the cell number change was -6.9%. Further, the concentration at half-maximal activity (AC50) under setting [1] is 7.31 µM [falling, single point].

Take `CSc1ccc(S(=O)(=O)N2CCC(C(=O)N3CCOCC3)CC2)cc1`: the cell number change is -11.5%.

For the molecule `CS(=O)(=O)N1CCCC(C(=O)NC2CCCCCCC2)C1` (configuration not stated), the AC50 under setting [1] is 29.1 µM [falling, partial curve].

In the case of `Cc1cc(OCC(=O)NCCO)cc(C)c1Cl`, the cell number change was -18%. Also, the AC50 under setting [1] is 5.17 µM [falling, single point].

On to `Nn1c(SCC(=O)N2CCCc3ccccc32)nnc1-c1ccc(Cl)cc1`, for which the cell number change came out at 0.0698%. Besides, the AC50 under setting [1] was 3.26 µM [rising, single point].

Turning to `COc1ccc(Cc2nnc(NC(=O)c3cccs3)s2)cc1`, the cell number change was -4.78%.

`CCCCCCCC1c2c(c(C)c(C)oc2=O)Oc2c(C)c(C)oc(=O)c21`: the cell number change is -14.6%. For the same molecule, the AC50 under setting [2] was 0.326 µM [falling, partial curve, poor fit].

As to `Cc1ccc(N(CC(=O)NCc2ccc(F)cc2)S(=O)(=O)c2c(C)nn(C)c2C)cc1`, the cell number change is -11.8%. In addition, under setting [1], the AC50 is 23.1 µM [rising, single point].

In the case of `O=C(Nn1cc(C(=O)N2CCN(c3ccccc3F)CC2)c2ccccc2c1=O)c1cnccn1`, the cell number change turned out to be 25.1%.

For the molecule `CSc1nnc(NC(=O)c2nc(S(=O)(=O)Cc3ccccc3F)ncc2Cl)s1`, the cell number change is -5.07%. For the same molecule, the half-maximal activity concentration (AC50) under setting [1] was 0.116 µM [rising, full curve, poor fit].

Regarding `COc1ccc(-n2ncc3c2CC(C)(C)CC3NC(=O)CCc2c(C)noc2C)cc1` (configuration not stated), the cell number change was found to be 31%. Under setting [2], the half-maximal activity concentration (AC50) is 29.1 µM [rising, partial curve, poor fit]. Moreover, under setting [1], the AC50 was 23.1 µM [rising, single point].

On to `Cc1c(Cc2ccccc2)c(=O)oc2cc(O)ccc12`, for which the cell number change was -17.6%. The AC50 under setting [1] was 29.1 µM [falling, single point].

As to `O=S(=O)(NCCOCCNS(=O)(=O)c1ccccc1)c1ccccc1`, the cell number change is 4.14%. In addition, under setting [1], the half-maximal activity concentration (AC50) is 0.058 µM [falling, full curve, poor fit].

`CCc1nc2nc(C)c(NS(=O)(=O)c3cccs3)c(=O)n2[nH]1`: the cell number change amounted to 18.5%. Under setting [1], the concentration at half-maximal activity (AC50) was 29.1 µM [rising, single point].

In the case of `O=C(N/N=C/c1c(Cl)cccc1Cl)C(=O)NC1CC1`, the cell number change is -7.24%.

As to `CC(C)CC(C(=O)N1CCc2ccccc2C1)N1C(=O)c2ccccc2C1=O` (configuration not stated), the AC50 under setting [2] was 1.84 µM [falling, partial curve].

On to `CN(C)c1ccc(C(C(=O)NC2CCCC2)N(C(=O)c2ccco2)C2CC2)cc1` (configuration not stated), for which the cell number change came to 21.4%. Further, the AC50 under setting [1] was 0.326 µM [falling, single point].

Take `CCOc1ccc(NC(=O)CCc2c(C)noc2C)cc1OC`: the cell number change was -10.7%. Moreover, the AC50 under setting [2] is 0.651 µM [falling, full curve, poor fit].

`CCC(C)N=Cc1c(Nc2ccccc2)nc2c(C)cccn2c1=O` (configuration not stated): the cell number change is 14.1%. In addition, the concentration at half-maximal activity (AC50) under setting [1] was 0.82 µM [rising, full curve].

As to `CCOc1ccccc1C(=O)NCC(=O)NCCc1ccc(S(N)(=O)=O)cc1`, the cell number change is 15.9%.

Consider `Cn1c(N)c(C(=O)COC(=O)CC(NC(N)=O)c2ccc(Cl)cc2)c(=O)n(C)c1=O` (configuration not stated), for which the cell number change is -25%.

In the case of `O=C(O)CCCN1C(=O)/C(=C\C(Cl)=C\c2ccccc2)SC1=S`, the cell number change was -8.45%. Further, under setting [1], the AC50 was 18.4 µM [falling, partial curve].

Consider `O=S(=O)(CCc1nc2ccccc2s1)c1ccc2ccccc2c1`, for which the cell number change was 63.3%. The half-maximal activity concentration (AC50) under setting [2] is 29.1 µM [rising, single point]. Moreover, under setting [1], the AC50 was 6.51 µM [falling, single point].

For the molecule `CCOC(=O)Cn1nnnc1CN(CCc1ccccc1)Cc1cc2cc(CC)ccc2[nH]c1=O`, under setting [1], the AC50 is 29.1 µM [rising, single point].

As for `Cc1ccc(-c2cc(C(F)(F)F)c(C#N)c(=O)[nH]2)cc1`, the cell number change is 6.88%.

For the molecule `CC1(C)N=C(SCC(=O)Nc2ccccc2)C(c2ccc(Cl)cc2)=N1`, the cell number change came out at 25.6%. For the same molecule, under setting [2], the half-maximal activity concentration (AC50) is 0.517 µM [rising, full curve]. Also, the half-maximal activity concentration (AC50) under setting [1] was 11.6 µM [rising, partial curve, poor fit].

With `O=c1[nH]nc(Cc2ccc(-c3ccccc3Cl)o2)c2ccccc12`, the cell number change is -30.2%. Under setting [2], the AC50 was 20.6 µM [falling, single point]. The AC50 under setting [1] was 0.13 µM [rising, full curve, poor fit].

Turning to `CC(C)C12CN3CCN(CC(C3)/C1=N\NC(=O)Nc1ccccc1)C2`, the cell number change is -64.6%. Besides, the concentration at half-maximal activity (AC50) under setting [2] is 32.6 µM [falling, partial curve, poor fit].

`CC(=O)c1ccc(N2CCN(C(=O)CCCc3nc4ccccc4s3)CC2)cc1`: the cell number change is -2.07%. Further, under setting [1], the concentration at half-maximal activity (AC50) is 16.4 µM [falling, single point].

As for `Cn1c(CCCOc2ccc(Cl)cc2Cl)nnc1SCC(=O)Nc1ccc(F)c(Cl)c1`, the cell number change was found to be 18.3%. Also, the AC50 under setting [2] was 0.164 µM [falling, full curve, poor fit].

For `CCOC(=O)N1CCN(c2cc(N3CCN(CC)CC3)c(F)cc2[N+](=O)[O-])CC1C` (configuration not stated), the cell number change amounted to 125%.

Take `O=C(NCCc1ccc(F)cc1)C1CCN(C(=O)Nc2ccccc2)CC1`: the cell number change is -29.2%. In addition, under setting [1], the AC50 was 0.651 µM [falling, full curve].

For `Cc1ccc(S(=O)(=O)/N=C(/NC(=S)Nc2ccccc2)c2ccccc2)cc1`, the cell number change is 39.5%. Moreover, the AC50 under setting [2] is 7.31 µM [rising, partial curve, poor fit].

As to `CC(Nc1nc(-c2ccncc2)nc2ccccc12)c1ccccc1` (configuration not stated), the cell number change worked out at 18%. The AC50 under setting [2] is 0.651 µM [rising, full curve, poor fit].

`COc1ccc(CN(C)c2ccc(S(=O)(=O)N3CCN(C)CC3)cc2[N+](=O)[O-])cc1OC`: the cell number change was -10.3%. Also, the AC50 under setting [2] is 2.31 µM [falling, partial curve]. Also, the AC50 under setting [1] is 1.46 µM [falling, full curve].

For the molecule `Cn1cc(C(CC(=O)O)C(=O)O)c2ccccc21` (configuration not stated), the cell number change was -50.8%. Further, under setting [2], the AC50 is 0.184 µM [falling, full curve].

For the molecule `N#C/C(C(=O)Nc1ccc(Cl)cc1)=C(/S)Nc1ccccc1`, the cell number change was 11.1%. For the same molecule, under setting [2], the AC50 was 4.11 µM [rising, single point].

For `CCN(CC)CCCCCCCCOC(=O)c1cc(OC)c(OC)c(OC)c1`, the cell number change came out at 8.89%. Besides, the concentration at half-maximal activity (AC50) under setting [1] was 5.8 µM [falling, single point].

On to `CCN1CCN(CCn2c(=S)[nH]c3ccccc3c2=O)CC1`, for which the cell number change is -5.42%. Further, the AC50 under setting [1] is 18.4 µM [falling, partial curve].

As to `CCn1c(SCC(=O)Nc2nnc(C)s2)nnc1-c1ccco1`, the cell number change is -1.18%. For the same molecule, the AC50 under setting [1] is 0.231 µM [falling, full curve, poor fit].

For the molecule `COc1ccc(C(=S)N2CCCCC2)cc1Br`, the cell number change was -6.05%.

As to `Cc1ccc(N2NC(C)(c3cccs3)NC2=S)cc1` (configuration not stated), the cell number change came to 34.8%. In addition, under setting [2], the AC50 is 3.66 µM [rising, partial curve].

Consider `Cc1c(N=C/C=C2\N(C)c3ccccc3C2(C)C)c(=O)n(-c2ccccc2)n1C`, for which the cell number change is 1.71%. Under setting [1], the AC50 is 0.00461 µM [rising, full curve, poor fit].

As to `Cc1sc2ncnc(Nc3ccccc3)c2c1C`, the cell number change amounted to 7.41%. In addition, under setting [1], the AC50 was 4.61 µM [rising, full curve].

For the origin of these results see PubChem BioAssay AID2685 (National Center for Advancing Translational Sciences (NCATS), 2010).
